# Reference: US6770784B2, “Use of γ-hydroxybutyric acid amides in the treatment of drug addiction and in particular of alcoholism” (Laboratorio Farmaceutico C.T. S.r.l., priority 1996, dated 2004)
# Some entries share one result that the patent states for a list of compounds. Some compounds share one range, which may span the group rather than tell each member.
# Test system: rats
# Assay: General neuropharmacological profile: behaviour observation (excitation, bursts, sedation) after i.p. administration
# Type: in vivo
# Settings: rat, GHB reference excitatory dose 100 mg/kg
# Method: The tests, which were intended to evaluate the neuropharmacological activity of the amides of the invention, were conducted on rats, because most of the data available in the literature concern said animal species.
# The time at which the effects started, their intensity and duration were recorded.
# Molecules were evaluated by systematically using a control group, in which rats had been treated with the utilized solvent, and a positive control group, in which rats had been treated intraperitoneally (i.p.) with a standard dose of GHB sodium salt (100 mg/kg) in 2 ml. GHB and the assayed amides were administered in 50% DMSO in distilled water.
# Said dose of drug, used as a reference, produced typical excitatory effects, characterized by the onset of generic excitation accompanied by more particular paroxysms, the so-called BURSTS of excitation.
# Generic excitation was characterized by an increased motor activity, extremely sharp and jerky movements, higher reactivity and shakes.
# “Bursts” of excitation were typical and well recognizable: the animals fought and frantically pursued each other.
# Recordings concerned the number of “bursts”, the time of their onset after treatment, their intensity, the partial or total involvement of treated animals, the duration of the single episodes.
# The sedation produced by higher doses of the molecules examined was evaluated analogously: time of onset, degree of sedation, partial or total involvement, duration of the effects.
# Table 2—General Neuropharmacological Profile of Benzylamido Derivatives of GHB Compared With a 100 mq/kg Dose of GHB (Excitatory Dose)
row,Compound,Dosage required for excitatory effects [mg/kg]
1,Nc1ccc(CNC(=O)CCCO)cc1 [Compound 3)],25 to 50
2,COCCCC(=O)NCc1ccc(C)cc1 [Compound 7)],25 to 50
3,COCCCC(=O)NCc1ccccc1 [Compound 10)],25 to 50
4,COCCCC(=O)NCc1ccc(Cl)cc1 [Compound 11)],25 to 50
5,CCOCCCC(=O)NCc1ccc(C)cc1 [Compound 12)],25 to 50
6,COCCCC(=O)NCc1cccc2ccccc12 [Compound 14)],25 to 50
7,COCCCC(=O)NCc1ccc(C(F)(F)F)cc1 [Compound 15)],25 to 50
